Assay results taken from PubChem BioAssay AID624405 (Broad Institute, 2012).
About 250 (13%) of roughly 1,900 compounds were called active. Roughly 4% stayed inconclusive and do not appear here.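 Rule for the calls: active = fitted curve reaches 40% rescue activity at or below the top valid dose, in every test run; inconclusive = test runs disagree, some active and some inactive; inactive = every run misses the threshold or moves the wrong way.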 Only a part is listed here, and it is no random draw. Results with a measured potency or affinity are listed apart.

Assay: rescue of simvastatin-induced ATP loss – cell-based, C2C12 myotubes, ATP luminescence, cherry pick, dose response (AID 624405);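 note: myotubes are challenged with simvastatin at 10 µM to lower ATP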
Conditions: 48 h, scaled: DMSO wells 0, geranylgeraniol wells 100; at 19.5 µM (top of the series) unless noted

| SMILES | rescue activity (ATP increase) |
| --- | --- |
| Nc1nc(NCc2c(F)cccc2Cl)nn1-c1ccccc1 | inactive: -28.5% |
| CCC1(CC)C(=O)NC(=O)NC1=Nc1cccc(OC)c1 | inactive: 7.77% |
| O=C(CCc1ccccc1)Nc1ccc(N2CCOCC2)c(Cl)c1 | inactive: -43.2% |
| C[C@@H]1CN([C@H](C)CO)C(=O)c2cccc(NC(=O)Nc3ccc4c(c3)OCO4)c2O[C@@H]1CN(C)S(=O)(=O)c1ccc(Cl)cc1 | inactive: -5.65% |
| COc1ccc(S(=O)(=O)Nc2ccc3c(c2)C(=O)N([C@H](C)CO)C[C@H](C)[C@@H](CN(C)S(=O)(=O)c2ccc(F)cc2)OCCCC[C@H](C)O3)cc1 | inactive: -6.4% |
| C[C@@H]1CCCCO[C@@H](CN(C)S(=O)(=O)c2cccs2)[C@@H](C)CN([C@H](C)CO)C(=O)c2cc(NC(=O)Nc3ccc(F)cc3)ccc2O1 | inactive: -23.7% |
| CCN(CC)C(=O)c1ccc(NS(=O)(=O)c2ccccc2)cc1 | inactive: 0.963% |
| C[C@@H]1CN([C@@H](C)CO)C(=O)Cc2cc(N(C)C)ccc2O[C@H]1CN(C)Cc1ccc(C(F)(F)F)cc1 | inactive: -0.166% |
| O=C(C[C@H]1CC[C@H]2[C@@H](COC[C@H](O)CN2Cc2ccc(Oc3ccccc3)cc2)O1)N1CCCCC1 | inactive: -0.632% |
| Cc1noc(C)c1S(=O)(=O)Nc1cccc2c1O[C@H](CN(C)C(=O)Nc1ccccc1)[C@H](C)CN([C@@H](C)CO)C2=O | inactive: -7.69% [at 21 µM] |
| O=C(NCc1ccncc1)Nc1ccccc1Cl | inactive: 3.84% |
| CN1C[C@H]2[C@@H](c3ccccc31)[C@H](CO)N2Cc1ccccc1 | inactive: 1.69% |
| COc1cc(CCC(=O)OCc2nnc(-c3ccccc3)o2)cc(OC)c1OC | inactive: 71.2% |
| CN1C[C@H]2[C@@H](c3ccccc31)[C@@H](CO)N2Cc1ccccc1Cl | inactive: 12.6% |
| COc1ccc(-c2n[nH]c(C)c2-c2cc(OC)ccc2O)cc1 | inactive: 7.92% |
| CN1CCN(c2ccc(NC(=S)NC(=O)c3cccc4c(Br)cccc34)cc2)CC1 | inactive: 12.4% |
| CC(C)C[C@@H](CO)N(Cc1ccccc1)S(=O)(=O)N(Cc1ccccc1)[C@H](CO)CC(C)C | inactive: -56.9% |
| C[C@@H]1CCCCO[C@H](CN(C)S(=O)(=O)c2ccc(F)cc2)[C@H](C)CN([C@@H](C)CO)C(=O)c2cc(NS(C)(=O)=O)ccc2O1 | inactive: -17.7% |
| C[C@H](CO)N1C[C@H](C)[C@H](CN(C)C(=O)NC2CCCCC2)OCCCC[C@H](C)Oc2ccc(NC(=O)Nc3cccc4ccccc34)cc2C1=O | inactive: 10% |
| Clc1ccc(Cn2ncc3c(N4CCCCC4)ncnc32)c(Cl)c1 | inactive: 27.3% |
| C[C@H]1CN([C@@H](C)CO)C(=O)c2cccc(NC(=O)Nc3ccc4c(c3)OCO4)c2O[C@H]1CN(C)S(=O)(=O)c1cccs1 | inactive: 14.8% |
| Cc1noc(C)c1NC(=O)Nc1ccc2c(c1)C(=O)N([C@H](C)CO)C[C@@H](C)[C@H](CN(C)C(=O)Nc1cccc3ccccc13)O2 | inactive: 14% |
| CCOc1ccc(Br)cc1-c1noc(-c2cccs2)n1 | inactive: 34.4% |
| Cc1ccc(S(=O)(=O)Nc2ccc3c(c2)C(=O)N([C@@H](C)CO)C[C@H](C)[C@H](CN(C)Cc2ccc(C(F)(F)F)cc2)O3)cc1 | inactive: 28.9% |

| SMILES | rescue activity (ATP increase) |
| --- | --- |
| COc1ccc(CN2[C@@H](CO)[C@@H]3c4ccccc4NC[C@@H]32)cc1 | inactive: -4.08% [at 21 µM] |
| Cc1cccc(NC(=O)c2ccccc2C(=O)O)c1 | inactive: -3.2% |
| O=C(NCc1ccco1)C(c1ccccc1)N(C(=O)Cc1cccs1)c1ccccc1 (configuration not stated) | inactive: -1.07% [at 10 µM] |
| Cc1ccc2nc(SCC(=O)N(CC(C)C)c3c(N)n(CC(C)C)c(=O)[nH]c3=O)[nH]c2c1 | inactive: 8.11% |
| COc1ccc(C=O)cc1CSc1nnc(COc2cccc3cccnc23)o1 | inactive: 6.76% |
| CCCC(=O)NC(=S)Nc1cccc(C(C)=O)c1 | inactive: -8.31% |
| Cc1ccc(S(=O)(=O)Nc2ccc3c(c2)C(=O)N([C@@H](C)CO)C[C@@H](C)[C@@H](CN(C)Cc2ccc(Cl)c(Cl)c2)O3)cc1 | inactive: 11.3% |
| N#CC1CN(C(c2ccccc2)c2ccccc2)C1 | inactive: 10.8% |
| CCOc1cc(CNCc2ccncc2)cc(Br)c1OCc1ccccc1F | inactive: -28% |
| O=C(NC1Cc2ccccc2C1)[C@H]1[C@H](CO)[C@H]2Cn3c(cccc3=O)[C@H]2N1C(=O)c1cnccn1 | inactive: -1.75% |
| CC(=O)CSc1nc(C(F)(F)F)cc(=O)n1-c1ccccc1 | inactive: 19% |
| CC1(C)Cc2cccc(OCC(N)=O)c2O1 | inactive: 37.2% |
| CCOC(=O)c1sc(Nc2nc3c(OC)cccc3s2)nc1C | inactive: 7.42% |
| COc1ccc(S(=O)(=O)Nc2ccc3c(c2)C(=O)N([C@H](C)CO)C[C@@H](C)[C@H](CN(C)S(=O)(=O)c2cccs2)OCCCC[C@H](C)O3)cc1 | inactive: -3.23% |
| Cc1ccc(CNC(=O)Cn2cccc2C(=O)c2ccccc2)cc1 | inactive: 20.5% |
| O=C(O)COc1ccc2c3c(c(=O)oc2c1)CCC3 | inactive: 0.208% |
| COc1ccc(C#Cc2cnc3c(c2)C(=O)N([C@H](C)CO)C[C@H](C)[C@@H](CN(C)C(=O)Nc2cccc(OC)c2)O3)cc1 | inactive: 32.5% |
| C[C@H]1CN([C@@H](C)CO)C(=O)c2cc(NC(=O)Nc3ccc(C(F)(F)F)cc3)ccc2O[C@H]1CN(C)Cc1ccc(C(=O)Nc2ccccc2N)cc1 | inactive: 44.6% [at 18 µM] |
| C/C(=N/NC(=O)c1cc(Cl)ccc1O)C12CC3CC(CC(C3)C1)C2 | inactive: -41.6% |
| O=C(Nc1ccccc1Cl)NC1(C(=O)N2CCCCC2)CCCCC1 | inactive: 17% |
| CCN1CCN(c2ccc(NC(=O)Cc3ccccc3)cc2)CC1 | inactive: -4.12% |
| CCOC(=O)CN(C(=O)CSc1nnc2c(n1)[nH]c1ccc(F)cc12)c1ccccc1 | inactive: -6.28% |
| C[C@H](CO)N1C[C@H](C)[C@H](CN(C)S(=O)(=O)c2ccc(Cl)cc2)OCCCC[C@H](C)Oc2ccc(NS(C)(=O)=O)cc2C1=O | inactive: 5.39% |

3 records drawn at random from the list so far:

| SMILES | rescue activity (ATP increase) |
| --- | --- |
| Cc1ccc2nc(SCC(=O)N(CC(C)C)c3c(N)n(CC(C)C)c(=O)[nH]c3=O)[nH]c2c1 | inactive: 8.11% |
| C[C@H]1CN([C@@H](C)CO)C(=O)c2cc(NC(=O)Nc3ccc(C(F)(F)F)cc3)ccc2O[C@H]1CN(C)Cc1ccc(C(=O)Nc2ccccc2N)cc1 | inactive: 44.6% [at 18 µM] |
| CC1(C)Cc2cccc(OCC(N)=O)c2O1 | inactive: 37.2% |
